Results published in patent US10934355B2, “Methods and compositions for the prevention and treatment of surgical adhesions” (The Board of Trustees of the Leland Stanford Junior …, priority 2016, dated 2021).
At least one compound was matched to its structure with a doubt left.

Test system: adhesion formation in wild type C57BL/6J mice
Experiment: Adhesion induction (ischemic button) with HIF1A small molecule inhibitor treatment, adhesion scoring
Format: in vivo, mouse
Conditions: cryptotanshinone 200 mg/kg, FM19G11 2 mg/kg, echinomycin 10 or 20 ug/kg, PX12 25 mg/kg, immediately after injury, 4 hours after, then every 24 hours for 7 days, scored after 7 days
Text: Adhesion induction surgeries were done on wild type B6 (C57BL/6J (The Jackson Laboratory) mice aged 6-10 weeks. Mice were anesthetized by inhaled isoflurane until determined unconscious confirmed by toe-pinch test. The abdomen was disinfected with betadine and phosphate buffered saline (PBS). A left mid-clavicular incision was made in the skin running down the length of the mouse. A similar left-mid clavicular incision was made in the peritoneum running down the length of the peritoneum. The peritoneum was gently folded to the right and held down by a hemostat. A single, ischemic button was placed on the right half of the peritoneal wall by clamping a small (−5 mm diameter) piece of peritoneum and ligating the base with a 4-0 silk suture (Ethicon, 683G). […] Mice were followed closely and monitored daily for signs of morbidity for 7 days until euthanasia. Adhesed tissues were dissected, scored, and fixed in 2% paraformaldehyde overnight at 4 degrees. […]
Adhesions were induced in wild type C57BL/6J mice using the method described above, with different intensity and scope of abrasions to induce a range of adhesion severity. These mice were allowed to recover for seven days before their adhesions were scored. […]

## C[C@H]1COC2=C1C(=O)C(=O)c1c2ccc2c1CCCC2(C)C [cryptotanshinone]
  adhesion formation: reduce adhesion formation
